Assay [1] deals with T1, YFP-ANKRD17 1950-2603 wild-type (human) (UniProt O75179).
T1 sequence: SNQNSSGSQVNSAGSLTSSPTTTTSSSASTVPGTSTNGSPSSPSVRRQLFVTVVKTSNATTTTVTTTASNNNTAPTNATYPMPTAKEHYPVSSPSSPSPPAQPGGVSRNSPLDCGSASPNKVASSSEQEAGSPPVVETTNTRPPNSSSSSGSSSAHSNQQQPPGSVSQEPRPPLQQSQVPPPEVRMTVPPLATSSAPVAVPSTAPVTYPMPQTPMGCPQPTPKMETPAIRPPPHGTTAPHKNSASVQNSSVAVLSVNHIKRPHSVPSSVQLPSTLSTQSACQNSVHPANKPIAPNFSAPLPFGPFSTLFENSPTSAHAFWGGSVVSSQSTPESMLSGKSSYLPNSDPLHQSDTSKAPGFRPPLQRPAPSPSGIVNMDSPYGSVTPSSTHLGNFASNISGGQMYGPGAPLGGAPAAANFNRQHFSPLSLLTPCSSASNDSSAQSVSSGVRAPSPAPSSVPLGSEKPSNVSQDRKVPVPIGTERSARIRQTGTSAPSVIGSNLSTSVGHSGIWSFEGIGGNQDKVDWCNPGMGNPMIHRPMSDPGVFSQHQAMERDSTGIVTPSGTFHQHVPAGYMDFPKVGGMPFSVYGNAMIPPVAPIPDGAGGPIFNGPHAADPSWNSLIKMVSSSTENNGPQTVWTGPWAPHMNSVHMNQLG
Kind of assay: co-IP.

Chains of the proteins cited; added tags and fusions are not shown.
UniProt A5YKK6: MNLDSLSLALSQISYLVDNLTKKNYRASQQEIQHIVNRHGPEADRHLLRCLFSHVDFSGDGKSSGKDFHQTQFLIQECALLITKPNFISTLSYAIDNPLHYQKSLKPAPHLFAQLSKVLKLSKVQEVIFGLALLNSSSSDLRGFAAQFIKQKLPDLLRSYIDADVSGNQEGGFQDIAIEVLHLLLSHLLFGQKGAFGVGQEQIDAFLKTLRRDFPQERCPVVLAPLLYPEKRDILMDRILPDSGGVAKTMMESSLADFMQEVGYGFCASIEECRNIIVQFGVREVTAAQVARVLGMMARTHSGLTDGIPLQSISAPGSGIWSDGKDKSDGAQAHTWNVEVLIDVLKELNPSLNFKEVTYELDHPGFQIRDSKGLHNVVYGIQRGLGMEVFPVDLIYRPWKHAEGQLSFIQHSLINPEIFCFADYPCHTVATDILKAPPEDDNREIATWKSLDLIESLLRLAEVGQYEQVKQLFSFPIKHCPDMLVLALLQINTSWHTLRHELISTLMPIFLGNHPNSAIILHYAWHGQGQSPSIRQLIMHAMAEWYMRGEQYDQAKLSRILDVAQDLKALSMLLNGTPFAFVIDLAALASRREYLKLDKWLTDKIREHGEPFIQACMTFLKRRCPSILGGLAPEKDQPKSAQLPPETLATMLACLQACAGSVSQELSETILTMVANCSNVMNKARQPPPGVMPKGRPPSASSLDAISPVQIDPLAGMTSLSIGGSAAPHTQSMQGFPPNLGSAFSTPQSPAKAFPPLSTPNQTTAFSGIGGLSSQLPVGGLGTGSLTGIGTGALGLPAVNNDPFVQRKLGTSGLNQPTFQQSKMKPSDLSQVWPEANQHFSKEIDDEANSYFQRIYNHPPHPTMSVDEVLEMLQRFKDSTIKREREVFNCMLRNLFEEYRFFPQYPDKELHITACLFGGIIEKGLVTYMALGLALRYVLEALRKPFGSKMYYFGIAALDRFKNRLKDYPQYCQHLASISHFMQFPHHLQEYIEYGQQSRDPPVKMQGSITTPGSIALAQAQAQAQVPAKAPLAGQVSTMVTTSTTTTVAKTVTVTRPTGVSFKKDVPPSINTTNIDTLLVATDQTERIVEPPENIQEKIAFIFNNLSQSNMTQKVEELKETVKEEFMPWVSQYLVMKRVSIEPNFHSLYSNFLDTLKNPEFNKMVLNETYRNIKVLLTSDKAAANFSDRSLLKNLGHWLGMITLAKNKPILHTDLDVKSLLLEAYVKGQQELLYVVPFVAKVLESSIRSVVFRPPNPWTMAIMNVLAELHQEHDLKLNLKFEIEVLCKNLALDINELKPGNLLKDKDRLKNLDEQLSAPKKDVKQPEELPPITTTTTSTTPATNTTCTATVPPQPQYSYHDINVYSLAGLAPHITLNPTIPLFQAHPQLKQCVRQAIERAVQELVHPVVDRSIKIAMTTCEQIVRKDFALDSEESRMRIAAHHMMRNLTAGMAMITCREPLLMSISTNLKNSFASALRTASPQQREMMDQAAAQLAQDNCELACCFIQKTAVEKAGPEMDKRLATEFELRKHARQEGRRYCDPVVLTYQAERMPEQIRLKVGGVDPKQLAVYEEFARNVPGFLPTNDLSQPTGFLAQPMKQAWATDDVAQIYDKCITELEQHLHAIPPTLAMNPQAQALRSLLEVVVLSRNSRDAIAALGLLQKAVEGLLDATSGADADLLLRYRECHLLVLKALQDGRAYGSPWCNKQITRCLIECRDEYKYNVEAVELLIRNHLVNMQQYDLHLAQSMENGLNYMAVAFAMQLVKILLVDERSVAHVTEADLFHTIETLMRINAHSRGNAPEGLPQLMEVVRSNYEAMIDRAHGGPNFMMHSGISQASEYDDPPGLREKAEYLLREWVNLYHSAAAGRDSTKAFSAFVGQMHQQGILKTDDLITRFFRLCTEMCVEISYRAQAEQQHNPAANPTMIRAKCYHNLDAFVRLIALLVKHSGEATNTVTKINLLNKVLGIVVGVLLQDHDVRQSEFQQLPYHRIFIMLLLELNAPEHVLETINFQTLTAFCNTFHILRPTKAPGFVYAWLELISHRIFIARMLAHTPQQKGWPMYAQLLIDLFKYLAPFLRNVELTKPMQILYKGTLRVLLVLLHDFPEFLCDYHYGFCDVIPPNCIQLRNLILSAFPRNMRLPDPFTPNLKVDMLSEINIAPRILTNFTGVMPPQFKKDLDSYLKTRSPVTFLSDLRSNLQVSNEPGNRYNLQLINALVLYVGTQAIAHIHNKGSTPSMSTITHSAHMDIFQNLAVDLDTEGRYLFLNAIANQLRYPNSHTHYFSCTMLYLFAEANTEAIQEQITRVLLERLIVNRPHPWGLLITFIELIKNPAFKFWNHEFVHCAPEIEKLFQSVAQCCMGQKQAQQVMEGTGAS

Assay [2] addresses T2, YFP-tagged full length CPSF1 wild-type (Cleavage and polyadenylation specificity factor subunit 1) (human) (UniProt Q10570).
T2 sequence: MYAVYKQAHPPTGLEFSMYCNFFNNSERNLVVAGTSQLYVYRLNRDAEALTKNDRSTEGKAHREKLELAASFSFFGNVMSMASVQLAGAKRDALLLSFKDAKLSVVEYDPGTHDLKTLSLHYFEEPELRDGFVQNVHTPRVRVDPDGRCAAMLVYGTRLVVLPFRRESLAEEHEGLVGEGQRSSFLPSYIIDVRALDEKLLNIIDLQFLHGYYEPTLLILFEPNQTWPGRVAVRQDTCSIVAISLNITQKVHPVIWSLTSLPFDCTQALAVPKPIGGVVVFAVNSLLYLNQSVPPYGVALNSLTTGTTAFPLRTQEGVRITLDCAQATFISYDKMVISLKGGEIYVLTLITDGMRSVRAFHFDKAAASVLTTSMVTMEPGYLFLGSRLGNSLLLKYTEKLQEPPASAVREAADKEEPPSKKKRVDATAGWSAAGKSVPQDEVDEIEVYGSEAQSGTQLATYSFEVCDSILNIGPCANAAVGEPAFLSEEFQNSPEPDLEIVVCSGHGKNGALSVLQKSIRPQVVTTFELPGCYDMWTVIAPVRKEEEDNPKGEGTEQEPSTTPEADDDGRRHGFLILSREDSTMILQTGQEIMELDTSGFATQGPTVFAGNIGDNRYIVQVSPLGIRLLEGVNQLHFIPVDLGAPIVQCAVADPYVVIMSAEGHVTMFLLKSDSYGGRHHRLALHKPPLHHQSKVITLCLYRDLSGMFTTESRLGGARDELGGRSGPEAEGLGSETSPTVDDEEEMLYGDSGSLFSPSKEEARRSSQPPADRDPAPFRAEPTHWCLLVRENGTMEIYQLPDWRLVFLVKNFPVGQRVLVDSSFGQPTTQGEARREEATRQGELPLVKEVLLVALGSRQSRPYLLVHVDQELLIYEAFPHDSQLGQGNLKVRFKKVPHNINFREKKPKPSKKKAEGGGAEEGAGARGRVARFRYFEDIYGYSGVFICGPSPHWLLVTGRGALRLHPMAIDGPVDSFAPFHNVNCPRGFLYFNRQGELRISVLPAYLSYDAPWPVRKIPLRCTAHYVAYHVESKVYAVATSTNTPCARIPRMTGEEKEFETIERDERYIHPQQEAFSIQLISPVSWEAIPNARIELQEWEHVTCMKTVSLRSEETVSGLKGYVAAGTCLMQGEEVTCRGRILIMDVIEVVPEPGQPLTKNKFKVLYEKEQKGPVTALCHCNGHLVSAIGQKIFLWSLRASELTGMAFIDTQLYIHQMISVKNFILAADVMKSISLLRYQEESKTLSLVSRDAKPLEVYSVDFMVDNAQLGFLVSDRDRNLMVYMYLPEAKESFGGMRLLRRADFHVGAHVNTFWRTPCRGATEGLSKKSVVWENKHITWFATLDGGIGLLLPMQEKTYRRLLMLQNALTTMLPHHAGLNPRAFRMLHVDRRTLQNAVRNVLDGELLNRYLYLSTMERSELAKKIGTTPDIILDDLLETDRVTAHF
Kind of assay: co-IP.

Results are given in words; binding and its absence hold for the method and conditions named. Binding seen in cells or lysates may run through a third protein. Some entries that bind do so weakly or less than the wild type. Sequences can lack the tags named with a protein.

For the molecule “CNOT1, endogenous (from UniProt A5YKK6 1-2376)”, the binding result in assay [1] is reported as “binds”.

B1: Cleavage stimulation factor subunit 3 (CSTF3), endogenous (protein, UniProt Q12996 1-717)
chain: MSGDGATEQAAEYVPEKVKKAEKKLEENPYDLDAWSILIREAQNQPIDKARKTYERLVAQFPSSGRFWKLYIEAEIKAKNYDKVEKLFQRCLMKVLHIDLWKCYLSYVRETKGKLPSYKEKMAQAYDFALDKIGMEIMSYQIWVDYINFLKGVEAVGSYAENQRITAVRRVYQRGCVNPMINIEQLWRDYNKYEEGINIHLAKKMIEDRSRDYMNARRVAKEYETVMKGLDRNAPSVPPQNTPQEAQQVDMWKKYIQWEKSNPLRTEDQTLITKRVMFAYEQCLLVLGHHPDIWYEAAQYLEQSSKLLAEKGDMNNAKLFSDEAANIYERAISTLLKKNMLLYFAYADYEESRMKYEKVHSIYNRLLAIEDIDPTLVYIQYMKFARRAEGIKSGRMIFKKAREDTRTRHHVYVTAALMEYYCSKDKSVAFKIFELGLKKYGDIPEYVLAYIDYLSHLNEDNNTRVLFERVLTSGSLPPEKSGEIWARFLAFESNIGDLASILKVEKRRFTAFKEEYEGKETALLVDRYKFMDLYPCSASELKALGYKDVSRAKLAAIIPDPVVAPSIVPVLKDEVDRKPEYPKPDTQQMIPFQPRHLAPPGLHPVPGGVFPVPPAAVVLMKLLPPPICFQGPFVQVDELMEIFRRCKIPNTVEEAVRIITGGAPELAVEGNGPVESNAVLTKAVKRPNEDSDEDEEKGAVVPPVHDIYRARQQKRIR
B1: the binding result in assay [2] is reported as “binds”.

(Values after article doi:10.1101/2024.09.11.612445 (bioRxiv, 2024).)
